{"source": "patent US11123311B2", "about": "“Methods of treating mental disorders” (The Regents of the University of California, priority 2016, dated 2021)", "key": {"[1]": {"test_system": "mice after social defeat stress", "assay": "repeated social defeat stress model of depression", "format": "in vivo"}, "[2]": {"test_system": "PC12 cells", "assay": "NGF-induced neurite outgrowth in PC12 cells", "format": "cell-based", "settings": "TPPU 0.1, 1.0 or 10 μM, 14,15-EET 0.01, 0.1 or 1.0 μM, concentration dependent", "protocol": "PC12 cells (RIKEN Cell Bank, Tsukuba, Japan) were cultured at 37° C., 5% CO2 in Dulbecco's modified Eagle's medium (DMEM), supplemented with 5% heat-inactivated fetal bovine serum (FBS), 10% heat-inactivated horse serum, and 1% penicillin-streptomycin. Medium was changed two to three times a week. PC12 cells were plated onto 24-well tissue culture plates coated with poly-D-lysine/laminin. Cells were plated at relatively low density (0.25×10^4 cells/cm^2) in DMEM medium containing 0.5% FBS, 1% penicillin-streptomycin. Medium containing a minimal level of serum (0.5% FBS) was used as previously reported (58-60). […]. Four days after incubation with NGF (2.5 ng/ml) with or without specified compounds, morphometric analysis was performed on digitized images of live cells taken under phase-contrast illumination, with an inverted microscope linked to a camera. Images of three fields per well were taken, with an average of 100 cells per field. Differentiated cells were counted by visual examination of the field; only cells that had at least one neurite with a length equal to the cell body diameter were counted, and were then expressed as a percentage of the total cells in the field. Counting was performed in a blinded manner."}, "[3]": {"test_system": "LPS-treated depressed mice", "format": "in vivo"}, "[4]": {"test_system": "TNF-α", "assay": "serum TNF-α after LPS administration", "format": "in vivo, mice", "settings": "TPPU 0.3, 1.0 or 3.0 mg/kg PO 60 min before LPS 0.5 mg/kg IP; dose dependent", "protocol": "Inflammation model of depression. The procedure of inflammation model of depression was performed as previously reported (36). Behavioral tests were performed 24 hours after a single administration of LPS (0.5 mg/kg). […] Serum sample was collected 90 min after LPS administration, and serum levels of TNF-α were measured using a Ready-SET-Go ELISA kit (eBioscience Inc., San Diego, Calif.), according to manufacturer's instructions. […] Behavioral tests including locomotion (LMT), tail suspension test (TST), and forced swimming test (FST) were performed 1, 3, and 5 hours after administration. […] Behavioral tests including LMT, TST, and FST were performed 24, 26, and 28 hours after administration of LPS."}, "[5]": {"settings": "single TPPU 3 mg/kg PO, mice after social defeat stress"}, "[6]": {"settings": "TPPU 3 mg/kg PO, LPS-treated depressed mice"}}, "note": "At least one structure is not confirmed: it was looked up by name or label, or the drawing left a doubt.", "data": [{"smiles": "CCC(=O)N1CCC(NC(=O)Nc2ccc(OC(F)(F)F)cc2)CC1", "note": "[TPPU]", "values": [{"measurement": "social interaction time", "setting": "[1]; TPPU pretreatment 3 mg/kg/day for 10 days PO 60 min before each stress, vs vehicle", "result": "increased social interaction time"}, {"measurement": "locomotion (LMT)", "setting": "[1]; single TPPU 3 mg/kg PO after repeated social defeat stress", "result": "no differences"}, {"measurement": "immobility time, FST", "setting": "[1]; [5]", "result": "significantly reduced"}, {"measurement": "immobility time, TST", "setting": "[1]; [5]", "result": "significantly reduced"}, {"measurement": "NGF-induced neurite outgrowth", "setting": "[2]", "result": "potentiated"}, {"measurement": "locomotion (LMT)", "setting": "[3]; TPPU 3 mg/kg PO 23 h after LPS 0.5 mg/kg IP", "result": "no differences"}, {"measurement": "immobility time, forced swim test (FST)", "setting": "[3]; [6]", "result": "significantly reduced"}, {"measurement": "immobility time, tail suspension test (TST)", "setting": "[3]; [6]", "result": "significantly reduced"}, {"measurement": "LPS-induced depression-like behavior", "setting": "[3]; TPPU 15 mg/L in drinking water for 3 weeks before LPS 0.5 mg/kg", "result": "significantly prevented"}, {"measurement": "LPS-induced increase of serum TNF-α levels", "setting": "[4]", "result": "attenuated"}]}]}
